# Laboratory results: PMC7819943, “Rice protein-binding microarrays: a tool to detect cis-acting elements near promoter regions in rice”
# Some of the results follow.
# Target: T1, OsSMF1 (Oryza sativa, UniProt Q6ZLB0 1-436)
# T1 sequence: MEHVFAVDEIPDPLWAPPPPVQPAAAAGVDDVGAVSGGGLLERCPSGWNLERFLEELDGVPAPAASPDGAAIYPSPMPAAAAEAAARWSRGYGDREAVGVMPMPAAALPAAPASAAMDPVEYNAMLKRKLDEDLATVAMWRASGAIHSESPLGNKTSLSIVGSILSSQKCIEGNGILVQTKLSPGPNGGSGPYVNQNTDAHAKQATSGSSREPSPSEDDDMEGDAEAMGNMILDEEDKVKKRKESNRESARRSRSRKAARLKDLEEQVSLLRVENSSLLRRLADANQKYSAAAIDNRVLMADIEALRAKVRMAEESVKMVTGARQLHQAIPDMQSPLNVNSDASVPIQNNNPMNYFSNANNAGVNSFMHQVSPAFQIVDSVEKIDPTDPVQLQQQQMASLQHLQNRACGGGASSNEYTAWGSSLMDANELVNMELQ
# Assay: protein-binding microarray (RPBM); PBS, 2% BSA, 51.3 ng/ul salmon testes DNA, 50 uM zinc acetate, 200 nM TF, 25 C, 1 h; high values mean tight binding
# Conditions: protein: recombinant; tags: N-terminal polyhistidine and DsRed monomer fusion (pET32a); chain copies: 2; label: CyDye5-dUTP incorporated in the synthesized complementary strand; 3' TTTTT single-stranded linker to array surface; dsDNA, one strand shown
# Procedure, shortened: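 Transcription factors were each fused at the N-terminus to a polyhistidine tag plus DsRed and expressed in E. coli BL21-CodonPlus before Ni–NTA purification. Binding to a double-stranded custom Agilent array was carried out with 200 nM protein at 25 °C for 1 h in PBS, 2% BSA, salmon testes DNA and 50 µM zinc acetate. The binding signal is per-feature fluorescence intensity, in arbitrary units, on an Axon 4000B scanner.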
row,Sequence,binding signal
1,ACTTCGATCTCCTCGAATCACGCGGTGCGGAAGTACGTGGCGGAGTCACCTAGTGCAG,5530 fluorescence intensity (a.u.)
2,GGCCGCTGATCTACGTGGCGGCAGTTCGGTACAGGTGGTGCGGAGTCACCTAGTGCAG,10500 fluorescence intensity (a.u.)
3,ACCCACCTAGTTGTGGTCTCCATTAAGAGACAAGTGTCCCCGGAGTCACCTAGTGCAG,3210 fluorescence intensity (a.u.)
4,ACATGCTAATGGATTGCTCTGTTTTCCGTGCGTAGGAGATCGGAGTCACCTAGTGCAG,3150 fluorescence intensity (a.u.)
5,ACCTCAACATGCCGGCAGATTGGCAGTGTGGCACCAAACCCGGAGTCACCTAGTGCAG,26700 fluorescence intensity (a.u.)
6,GTGTTCTTCCACGTTGCTACACGCGGGAGTGGCGAGGCGTCGGAGTCACCTAGTGCAG,3180 fluorescence intensity (a.u.)
7,GGGAAAATTAAGCCAAATTCTTCTACGTCAGCTCATAAAACGGAGTCACCTAGTGCAG,4930 fluorescence intensity (a.u.)
8,TATGAGTTCTGCTGACACGTGGGCCACCAGTCTATCATAACGGAGTCACCTAGTGCAG,14200 fluorescence intensity (a.u.)
9,TTAAAACTCAATTAATCACACGTTATTACCACCTCGTTTTCGGAGTCACCTAGTGCAG,3210 fluorescence intensity (a.u.)
10,TGCAGCCCGTAGGCCGTGTGGCTACGTGGATCGTAGTCCGCGGAGTCACCTAGTGCAG,4380 fluorescence intensity (a.u.)
11,TGATGGCCAGTCATGTTACAGACTGTATCATGCAGTTTGACGGAGTCACCTAGTGCAG,3700 fluorescence intensity (a.u.)
12,CCTCACGCCGTCACGGCCCCACCTGTCAGCCTCCCATCTCCGGAGTCACCTAGTGCAG,3900 fluorescence intensity (a.u.)
13,CTCGATGCCCTTCCACGATGACTTGGCCGCCACTGCCACACGGAGTCACCTAGTGCAG,6220 fluorescence intensity (a.u.)
14,GCGGCCGCAGCTGCACTGCCGGTTCGTGACGAAGCTGCTCCGGAGTCACCTAGTGCAG,3420 fluorescence intensity (a.u.)
15,CAGAGACGTTAGCTGCAACTGCAAGCATGTCAAACTTTGGCGGAGTCACCTAGTGCAG,3270 fluorescence intensity (a.u.)
16,ATTTAATACTTGAGTCAACTCCTTAATATCAATATTGTAACGGAGTCACCTAGTGCAG,3680 fluorescence intensity (a.u.)
17,ACGCTGCCCGAGTACACGGCTACACGCTCGGCTCCCGACCCGGAGTCACCTAGTGCAG,22900 fluorescence intensity (a.u.)
18,GATCGAGTCGTGGGTGTGCATGGTGTGCGTGGCGTCGGTTCGGAGTCACCTAGTGCAG,5590 fluorescence intensity (a.u.)
19,GCGCCAAGGAAAGTGGCGCTGAGCTGTAGATGTCAGCGCCCGGAGTCACCTAGTGCAG,3940 fluorescence intensity (a.u.)
20,TCAGATCAGGGACACAACAGTGCACAGACGTACGTGGCAGCGGAGTCACCTAGTGCAG,9200 fluorescence intensity (a.u.)
21,GGAACAATTATAGATTTACCACTTATTCTAATCGGTACCGCGGAGTCACCTAGTGCAG,7660 fluorescence intensity (a.u.)
22,GGCTAATGATGATGCGGATGGATGCTGCTAATGACTGTGGCGGAGTCACCTAGTGCAG,4470 fluorescence intensity (a.u.)
23,CGACTTCCTCGACCTGTCGCTTGTCGACGGGTTAACGTGCCGGAGTCACCTAGTGCAG,3660 fluorescence intensity (a.u.)
24,GAAAATCATCCAATGCTTCGGATCCAACGATAGCAGCGTGCGGAGTCACCTAGTGCAG,24300 fluorescence intensity (a.u.)
25,TTCTCCCACTGTCATCTTCGGCATATCCTTCTCATTGTCTCGGAGTCACCTAGTGCAG,3750 fluorescence intensity (a.u.)
26,CATCTTATCTATCTAGATTTGTAATTCTAAGATGTGTCTTCGGAGTCACCTAGTGCAG,3210 fluorescence intensity (a.u.)
27,CAGCTCCTGCAATGCTAGCGTACCAAGTCCGCTGATTCAACGGAGTCACCTAGTGCAG,3160 fluorescence intensity (a.u.)

row,Sequence,binding signal
1,ACACGTGAAGCAGCAACGCCACGTCACTGCCTCACGCTGTCGGAGTCACCTAGTGCAG,7290 fluorescence intensity (a.u.)
2,GCAGAAAGCTTTGTAACTGCATGCCTGTGTTAGGAAGCAACGGAGTCACCTAGTGCAG,12600 fluorescence intensity (a.u.)
3,CCCTTTCACATGTCACCTCTGACCCACAAACAAACCCTTTCGGAGTCACCTAGTGCAG,4480 fluorescence intensity (a.u.)
4,CCGTTTAATATTTTCCATCTTGATGGACACGTGGTTTGTTCGGAGTCACCTAGTGCAG,9220 fluorescence intensity (a.u.)
5,TCCATCTGCTCATGTTGTTGAGGTCCACGTCTGGTCAAAGCGGAGTCACCTAGTGCAG,4670 fluorescence intensity (a.u.)
6,TTCTTCACACACACACACGGCCTCGTGGCTTCGCGACTCCCGGAGTCACCTAGTGCAG,3550 fluorescence intensity (a.u.)
7,ATATGTCATCGGTATCTCAATGACATGTAGGACCCACATGCGGAGTCACCTAGTGCAG,4140 fluorescence intensity (a.u.)
8,CAATTTCTCGTTCGCTCTCACGTGCGCGTCGCATCTCCCTCGGAGTCACCTAGTGCAG,3460 fluorescence intensity (a.u.)
9,GCCCTAATGGTGGGCGGCAAGCTGACGTGGCAGACGGTGGCGGAGTCACCTAGTGCAG,29700 fluorescence intensity (a.u.)
10,GGGAGGGTGAAATCACGTGCATCGCTACGTCCGTCTTTGCCGGAGTCACCTAGTGCAG,3390 fluorescence intensity (a.u.)
11,GTGCTGCTGACTCCAGCTTGACCTGTAGCAGTGATCCAAACGGAGTCACCTAGTGCAG,3630 fluorescence intensity (a.u.)
12,ACTGGCAAACCTGGGCCGGCCGGTGGTGAATCGTGGGTTGCGGAGTCACCTAGTGCAG,3180 fluorescence intensity (a.u.)
13,ACGCAGTCACGCAGACCACAGGGCGATGCAGCGGACCGACCGGAGTCACCTAGTGCAG,40900 fluorescence intensity (a.u.)
14,GAGAGAAGATAGTAGTGGTAGTAGTAGCTGAGCTGTGTCACGGAGTCACCTAGTGCAG,3360 fluorescence intensity (a.u.)
15,CGCCCTCCTGTCGCCACGTGTCTCGCCGGCGCCACCTCGCCGGAGTCACCTAGTGCAG,26200 fluorescence intensity (a.u.)
16,TCCCCGGAGATTGCACACTTCTCCTCGCAACTAACAATACCGGAGTCACCTAGTGCAG,5580 fluorescence intensity (a.u.)
17,GATACGCCTGGGAGGCCACGTATCCGTATCGGATACGCCTCGGAGTCACCTAGTGCAG,5440 fluorescence intensity (a.u.)
18,ACAGGGAAATCATCAAAGATGGGGAAATTGTACTCGTAGCCGGAGTCACCTAGTGCAG,3560 fluorescence intensity (a.u.)
19,CAAATGGCTTCTACTTTTGAGCCACGTCAAAACCTCGGTTCGGAGTCACCTAGTGCAG,10500 fluorescence intensity (a.u.)
20,TAGCCCCTATCATATGGGTCCACGTGGGTCCCAAGATGAACGGAGTCACCTAGTGCAG,9080 fluorescence intensity (a.u.)
21,GAAGATTAGAGGTTTCTTGTAACGAACGAACGAGGCCATCCGGAGTCACCTAGTGCAG,3390 fluorescence intensity (a.u.)
22,AGCCGCCATGGCCACGTCCACTGCCTTATCCACATCCAATCGGAGTCACCTAGTGCAG,6420 fluorescence intensity (a.u.)
23,TATTTGTGGGTGTGAGTGTGGTGAGCGTGCGTGTGTCTTACGGAGTCACCTAGTGCAG,3900 fluorescence intensity (a.u.)
24,TAGGAATTTCTCTAATTTATTAAAGCGCCACGTGTCAGTTCGGAGTCACCTAGTGCAG,31300 fluorescence intensity (a.u.)
25,ATCGCCCTCGCTCGCCGCCACGCTGCTCCAGCGACTATTACGGAGTCACCTAGTGCAG,3780 fluorescence intensity (a.u.)
26,CCTGGGGATGCAGATACACGACAACAACTGAAGCTTGTTGCGGAGTCACCTAGTGCAG,3240 fluorescence intensity (a.u.)
27,TCATCCTCCGCCTCGAGCATTCCCTCTCATCCTCCCGCCCCGGAGTCACCTAGTGCAG,31400 fluorescence intensity (a.u.)

# Exported with tabs: entries from further up.
row	Sequence	binding signal
1	ACACGTGAAGCAGCAACGCCACGTCACTGCCTCACGCTGTCGGAGTCACCTAGTGCAG	7290 fluorescence intensity (a.u.)
2	GCAGAAAGCTTTGTAACTGCATGCCTGTGTTAGGAAGCAACGGAGTCACCTAGTGCAG	12600 fluorescence intensity (a.u.)
3	CCCTTTCACATGTCACCTCTGACCCACAAACAAACCCTTTCGGAGTCACCTAGTGCAG	4480 fluorescence intensity (a.u.)
4	CCGTTTAATATTTTCCATCTTGATGGACACGTGGTTTGTTCGGAGTCACCTAGTGCAG	9220 fluorescence intensity (a.u.)
5	TCCATCTGCTCATGTTGTTGAGGTCCACGTCTGGTCAAAGCGGAGTCACCTAGTGCAG	4670 fluorescence intensity (a.u.)
6	TTCTTCACACACACACACGGCCTCGTGGCTTCGCGACTCCCGGAGTCACCTAGTGCAG	3550 fluorescence intensity (a.u.)
7	ATATGTCATCGGTATCTCAATGACATGTAGGACCCACATGCGGAGTCACCTAGTGCAG	4140 fluorescence intensity (a.u.)
8	CAATTTCTCGTTCGCTCTCACGTGCGCGTCGCATCTCCCTCGGAGTCACCTAGTGCAG	3460 fluorescence intensity (a.u.)
9	GCCCTAATGGTGGGCGGCAAGCTGACGTGGCAGACGGTGGCGGAGTCACCTAGTGCAG	29700 fluorescence intensity (a.u.)
10	GGGAGGGTGAAATCACGTGCATCGCTACGTCCGTCTTTGCCGGAGTCACCTAGTGCAG	3390 fluorescence intensity (a.u.)
11	GTGCTGCTGACTCCAGCTTGACCTGTAGCAGTGATCCAAACGGAGTCACCTAGTGCAG	3630 fluorescence intensity (a.u.)
12	ACTGGCAAACCTGGGCCGGCCGGTGGTGAATCGTGGGTTGCGGAGTCACCTAGTGCAG	3180 fluorescence intensity (a.u.)
13	ACGCAGTCACGCAGACCACAGGGCGATGCAGCGGACCGACCGGAGTCACCTAGTGCAG	40900 fluorescence intensity (a.u.)
14	GAGAGAAGATAGTAGTGGTAGTAGTAGCTGAGCTGTGTCACGGAGTCACCTAGTGCAG	3360 fluorescence intensity (a.u.)
15	CGCCCTCCTGTCGCCACGTGTCTCGCCGGCGCCACCTCGCCGGAGTCACCTAGTGCAG	26200 fluorescence intensity (a.u.)
